PubChem BioAssay AID743121 – NCATS – 2013

Aim: 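Knock-downs that sensitise breast cancer cells to camptothecin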 (primary screen)
Cell system: MDA-MB-231 cells, a human breast cancer line
Knock-down reagent: single siRNA against human genes, 20 nM siRNA (0.8 pmol per well)
Duration: 120 h (drug added 48 h after transfection, read 72 h later)
Challenge: camptothecin 20 nM (about EC30) for 72 h; vehicle 0.1% DMSO in parallel plates
Measurement: 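Cell viability by ATP luminescence (CellTiter-Glo) as % of non-targeting siRNA wells, and the log2 ratio of viability without drug over viability with camptothecin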
Direction: log2 vehicle/camptothecin viability: higher = stronger sensitisation to camptothecin
Active means: 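Active genes have an RSA gene-level p-value below 0.001, computed from the ratios of their separate siRNAs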
Shown is a random part of about 26,000 deposited reagents. 167 of them (0.63%) were called active. 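Calls are per gene from RSA p-values that are not deposited; an individual active-marked siRNA can sensitise only weakly.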 A number with no mark means an inactive call. Not all columns of the deposit are shown.

OGDH (GeneID 4967) [SID164378829]: log2 vehicle/camptothecin viability = -0.00945
OGDH (GeneID 4967) [SID164378833]: log2 vehicle/camptothecin viability = -0.551
OGDH (GeneID 4967) [SID164378834]: log2 vehicle/camptothecin viability = 0.152
CDC25A (GeneID 993) [SID164357540]: log2 vehicle/camptothecin viability = 0.0784
CDC25A (GeneID 993) [SID164357542]: log2 vehicle/camptothecin viability = 0.496
CDC25A (GeneID 993) [SID164357543]: log2 vehicle/camptothecin viability = -0.216
CDC25A (GeneID 993) [SID164357548]: log2 vehicle/camptothecin viability = -0.148
EIF2AK4 (GeneID 440275) [SID164689612]: log2 vehicle/camptothecin viability = -0.0653
EIF2AK4 (GeneID 440275) [SID164689615]: log2 vehicle/camptothecin viability = -0.181
EIF2AK4 (GeneID 440275) [SID164689616]: log2 vehicle/camptothecin viability = 0.496
EIF2AK4 (GeneID 440275) [SID164689617]: log2 vehicle/camptothecin viability = 0.115
ADRA1B (GeneID 147) [SID164352542]: log2 vehicle/camptothecin viability = -0.379
ADRA1B (GeneID 147) [SID164352544]: log2 vehicle/camptothecin viability = 0.323
ADRA1B (GeneID 147) [SID164352545]: log2 vehicle/camptothecin viability = -0.128
ADRA1B (GeneID 147) [SID164352546]: log2 vehicle/camptothecin viability = 1.13

A run of entries taken from the entries so far, for reference:
CDC25A (GeneID 993) [SID164357548]: log2 vehicle/camptothecin viability = -0.148
EIF2AK4 (GeneID 440275) [SID164689612]: log2 vehicle/camptothecin viability = -0.0653
EIF2AK4 (GeneID 440275) [SID164689615]: log2 vehicle/camptothecin viability = -0.181
EIF2AK4 (GeneID 440275) [SID164689616]: log2 vehicle/camptothecin viability = 0.496

Continued:
CFD (GeneID 1675) [SID164361434]: log2 vehicle/camptothecin viability = -0.0474
CFD (GeneID 1675) [SID164361436]: log2 vehicle/camptothecin viability = 0.392
CFD (GeneID 1675) [SID164361437]: log2 vehicle/camptothecin viability = -0.354
MTMR9 (GeneID 66036) [SID164506265]: log2 vehicle/camptothecin viability = -0.228
MTMR9 (GeneID 66036) [SID164506268]: log2 vehicle/camptothecin viability = -0.416
MTMR9 (GeneID 66036) [SID164506270]: log2 vehicle/camptothecin viability = -0.284
MTMR9 (GeneID 66036) [SID164506272]: log2 vehicle/camptothecin viability = -0.332
TK2 (GeneID 7084) [SID164391893]: log2 vehicle/camptothecin viability = -0.0127
TK2 (GeneID 7084) [SID164391896]: log2 vehicle/camptothecin viability = -0.345
TK2 (GeneID 7084) [SID164391897]: log2 vehicle/camptothecin viability = 0.258
TK2 (GeneID 7084) [SID164391898]: log2 vehicle/camptothecin viability = -0.11
